Data source: PubChem BioAssay AID1508597 (Cure First, 2020)

- Assay: 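Survival screen with siRNA in ovarian cancer cells derived from patients, with or without rucaparib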 (primary screen)
- System: human ovarian carcinoma lines grown from tumours: OCI-P5x (papillary serous) and OCI-C5x (clear cell)
- Reagents: siRNA pool against human genes, 1.25 pmol siRNA per well
- Time to read-out: 72 h or 96 h, depending on the cell culture
- Challenge: rucaparib 20 µM (about IC30) or vehicle, present until read-out
- Rucaparib or vehicle: Vehicle
- Cell line: OCI-P5x (serous)
- Detection: 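ATP luminescence measured at 72 or 96 h according to the culture, then normalised and expressed as percent viability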
- Reading the numbers: viability, normalised: higher = more viable cells remaining
- Rule for the call: 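a well counts as a hit if its normalised viability is under 80 percent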
- Calls: active = viability under 80%; inactive = viability 80% or more
This is a random part of the about 2,100 reagents, under one of the conditions tested. 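Calls flag viability under 80% in either arm, not effects specific to rucaparib; the reference for percent is not stated.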 Unmarked entries are inactive. A reagent listed more than once was tested more than once; the source does not tell the runs apart. Not given: the 100% reference.

Which result is listed for DDX21 (DExD-box helicase 21), technical replicate 1?
viability, normalised (%): 81.4

How did the screen score DDX21 (DExD-box helicase 21), technical replicate 1?
viability, normalised (%): 64.3 (active)

For DDX21 (DExD-box helicase 21), technical replicate 2, what does the deposit list?
viability, normalised (%): 65.6 (active)

For DDX21 (DExD-box helicase 21), technical replicate 2, what was measured?
viability, normalised (%): 83.5

What did the screen give for DDX21 (DExD-box helicase 21), technical replicate 3?
viability, normalised (%): 77.7 (active)

Which result is listed for DDX21 (DExD-box helicase 21), technical replicate 3?
viability, normalised (%): 64.6 (active)

What did the screen give for SUDS3 (SIN3A corepressor complex component SDS3), technical replicate 1?
viability, normalised (%): 66.8 (active)

With SUDS3 (SIN3A corepressor complex component SDS3), technical replicate 2, how do the results read?
viability, normalised (%): 52.3 (active)

For SUDS3 (SIN3A corepressor complex component SDS3), technical replicate 3, what does the deposit list?
viability, normalised (%): 78.1 (active)

For DHX29 (DExH-box helicase 29), technical replicate 1, how do the results read?
viability, normalised (%): 62.6 (active)

For DHX29 (DExH-box helicase 29), technical replicate 2, what does the deposit list?
viability, normalised (%): 60.6 (active)

How did the screen score DHX29 (DExH-box helicase 29), technical replicate 3?
viability, normalised (%): 63.2 (active)

What is on record for PARP16 (poly(ADP-ribose) polymerase family member 16), technical replicate 1?
viability, normalised (%): 62.1 (active)

With PARP16 (poly(ADP-ribose) polymerase family member 16), technical replicate 2, what does the deposit list?
viability, normalised (%): 66.7 (active)

Which result is listed for PARP16 (poly(ADP-ribose) polymerase family member 16), technical replicate 3?
viability, normalised (%): 83.9

Which result is listed for SUPT4H1 (SPT4 homolog, DSIF elongation factor subunit), technical replicate 1?
viability, normalised (%): 72.4 (active)

Which result is listed for SUPT4H1 (SPT4 homolog, DSIF elongation factor subunit), technical replicate 2?
viability, normalised (%): 68 (active)

For SUPT4H1 (SPT4 homolog, DSIF elongation factor subunit), technical replicate 3, what does the deposit list?
viability, normalised (%): 69.5 (active)

What did the screen give for ATM (ATM serine/threonine kinase), technical replicate 1?
viability, normalised (%): 103

With ATM (ATM serine/threonine kinase), technical replicate 1, what was measured?
viability, normalised (%): 75 (active)

How did the screen score ATM (ATM serine/threonine kinase), technical replicate 2?
viability, normalised (%): 93.1

For ATM (ATM serine/threonine kinase), technical replicate 2, how do the results read?
viability, normalised (%): 73.7 (active)

For ATM (ATM serine/threonine kinase), technical replicate 3, what was measured?
viability, normalised (%): 75 (active)

What did the screen give for ATM (ATM serine/threonine kinase), technical replicate 3?
viability, normalised (%): 90.2

5 entries already listed, arranged by “viability, normalised (%)”, highest first:
DDX21 (DExD-box helicase 21), technical replicate 2 | viability, normalised (%): 83.5
DDX21 (DExD-box helicase 21), technical replicate 3 | viability, normalised (%): 77.7 (active)
SUDS3 (SIN3A corepressor complex component SDS3), technical replicate 1 | viability, normalised (%): 66.8 (active)
DDX21 (DExD-box helicase 21), technical replicate 2 | viability, normalised (%): 65.6 (active)
DDX21 (DExD-box helicase 21), technical replicate 3 | viability, normalised (%): 64.6 (active)

Continued:
For DPYD (dihydropyrimidine dehydrogenase), technical replicate 1, what was measured?
viability, normalised (%): 62 (active)

How did the screen score DPYD (dihydropyrimidine dehydrogenase), technical replicate 2?
viability, normalised (%): 59.3 (active)

How did the screen score DPYD (dihydropyrimidine dehydrogenase), technical replicate 3?
viability, normalised (%): 50.7 (active)

With CCK (cholecystokinin), technical replicate 1, what was measured?
viability, normalised (%): 49.1 (active)

What is on record for CCK (cholecystokinin), technical replicate 2?
viability, normalised (%): 76.1 (active)

For CCK (cholecystokinin), technical replicate 3, what was measured?
viability, normalised (%): 80.5

Which result is listed for REV1 (REV1 DNA directed polymerase), technical replicate 1?
viability, normalised (%): 58.1 (active)

Which result is listed for REV1 (REV1 DNA directed polymerase), technical replicate 1?
viability, normalised (%): 81.6

What did the screen give for REV1 (REV1 DNA directed polymerase), technical replicate 2?
viability, normalised (%): 79.2 (active)

Which result is listed for REV1 (REV1 DNA directed polymerase), technical replicate 2?
viability, normalised (%): 72.9 (active)

With REV1 (REV1 DNA directed polymerase), technical replicate 3, how do the results read?
viability, normalised (%): 64.6 (active)

With REV1 (REV1 DNA directed polymerase), technical replicate 3, how do the results read?
viability, normalised (%): 78.9 (active)

With TSSK3 (testis specific serine kinase 3), technical replicate 1, how do the results read?
viability, normalised (%): 96.9

What did the screen give for TSSK3 (testis specific serine kinase 3), technical replicate 2?
viability, normalised (%): 107

Which result is listed for TSSK3 (testis specific serine kinase 3), technical replicate 3?
viability, normalised (%): 114

For MAEL (maelstrom spermatogenic transposon silencer), technical replicate 1, how do the results read?
viability, normalised (%): 81.8

With MAEL (maelstrom spermatogenic transposon silencer), technical replicate 2, how do the results read?
viability, normalised (%): 94.4

Which result is listed for MAEL (maelstrom spermatogenic transposon silencer), technical replicate 3?
viability, normalised (%): 79.5 (active)
